Measurements as given in PubChem BioAssay AID1794845 (National Center for Advancing Translational Sciences (NCATS), 2023).
Hit rate of the full screen: of about 6,900 compounds, fewer than 10 were called active. The call rests on the fitted dose curve; in most records, active means well fitted curve in the direction sought with a large enough effect; inconclusive means small, poorly fitted or top-dose-only effect, or another doubt; inactive means no such curve, though single readings can be large or run the other way. The list shows a part of the results.

Sequences of proteins named here, by UniProt entry; tags and fusion partners are left off. A change or cut given only in a name is not applied to a line headed by its entry.
UniProt C7C422: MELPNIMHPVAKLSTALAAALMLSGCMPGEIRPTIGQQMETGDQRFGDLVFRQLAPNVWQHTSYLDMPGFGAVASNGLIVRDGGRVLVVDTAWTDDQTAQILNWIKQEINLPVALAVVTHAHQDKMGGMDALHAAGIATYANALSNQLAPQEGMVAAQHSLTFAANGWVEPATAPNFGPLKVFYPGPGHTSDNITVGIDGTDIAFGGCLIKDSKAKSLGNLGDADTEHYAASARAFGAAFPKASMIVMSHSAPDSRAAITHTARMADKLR

Biological target: Metallo-beta-lactamase type 2 (Klebsiella pneumoniae) (UniProt C7C422)
Assay: qHTS to identify inhibitors of the New Delhi Metallo-beta-lactamase (NDM): primary screen against the NCATS Gemini Collection; further: % of control where 0% means no effect
Conditions: NDM-1 enzyme, meropenem hydrolysis, absorbance 300 nm; at 38.4 µM (top of the series) unless noted
Method in brief: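 Meropenem hydrolysis (50 uM final) by 2 nM NDM-1 read as 300 nm absorbance after 30 min, following >30 min compound–enzyme preincubation in HEPES pH 7.0 with 1 uM ZnSO4 and 0.01% Tween20.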

Activity % (negative = inhibition), inactive:
CN1C(=O)N(C)C2(CCN(CCc3ccccc3)C2)C1=O (centres undefined) 0.235%, O=c1n(CC2CC2)nc2n1CCN(C1CCCC1)CC2 -1.41%, CC1(C(=O)N2CCC(C3CCN(S(C)(=O)=O)CC3)C2)CCOCC1 (centres undefined) 0.103%, O=C(N[C@@H]1CN(C(=O)Cn2c(=O)oc3ccccc32)CC[C@@H]1CO)c1ccccc1 4.87%, Cc1ccc2c(c1)c(C(=O)N[C@H](c1cnn(C)c1)C1CC(O)C1)nn2C (some centres undefined) 28%, CS(=O)(=O)N[C@H]1CCN2C(=O)c3cc(-c4cccc(C(F)(F)F)c4)ccc3NC(=O)[C@@H]2C1 13.8%, COC(=O)[C@@H]1CN(C(=O)Nc2ccccc2)CCN1C(C)=O 1.62% [at 57.5 µM], COc1ccc(OC2CN(CC3CC3)C2)cc1 -0.736% [at 77.1 µM], CC(C)OCCCNC(=O)c1cc(C2CC2)nc2onc(C3CCNC3)c12 (centres undefined) 4.11%, O=C(O)CO[C@@H]1COCC[C@H]1NC(=O)c1ccccc1-c1ncn[nH]1 6.48%, OCc1ccc(CN2C[C@H](O)C[C@H]2c2nc(-c3ccc(F)cc3)no2)o1 7.52% [at 57.5 µM], CCN1CCN(C(=O)C23CCC=C2N(C2CCCC2)C(=O)CC3)CC1 (centres undefined) 11.7%, Cc1ccc([S+](=O)([O-])N2CCN(c3nc4ncccc4o3)CC2)cc1 -0.878%, O=C(CCCn1cncn1)NC1CC(c2cc(N3CCOCC3)ncn2)C1 (centres undefined) 1.62%, COc1ccc(NC(=O)Cn2c(-c3ccc(Cl)cc3)nc(C)cc2=O)cc1OC 0.0347%, COC1CN(c2cccc(F)c2)C12CCN(C(=O)NCC(C)C)CC2 (centres undefined) 2.05%, CCn1cc(C(=O)N2C[C@@H](COC)[C@H](C(=O)NC)C2)cn1 -3.54%, Cc1noc(C)c1C(=O)N1CCN(c2ccc(C=O)cc2)C(=O)C1 2.02%, CN1C(=O)[C@H]2CN(Cc3cn[nH]c3-c3ccc(F)cc3)C[C@H]2C1=O -1.45%, CN(Cc1cnn(-c2ccccc2)c1)Cc1cc2ccccc2[nH]c1=O -7.55%, CCCc1nc(C(=O)N2CCC3(CCCNC3)C2)cs1 (centres undefined) 13.1%, CC(C)NC(=O)NCC1Cn2cccc2C(=O)N1Cc1ccccc1 (centres undefined) 6.71%, COCCN1CCCCCC(O)c2cc(C(=O)N(C)CCCc3c(C)nn(C)c3C)ccc21 (centres undefined) -2.8%, CCC(=O)N(C1CCOCC1)C1CCN(S(=O)(=O)c2ccc(Cl)c(C)c2)CC1 -1.77%
